These are yes or no findings as the source states them, for the method shown. Some results given as binding are weak or reduced against the parent protein; the word gives no strength. Tags and fused reporters may be left off the sequences shown.

Amino acid sequences for entries named in this document (tags omitted). A change or cut given only in a name is not applied to a line headed by its entry.
UniProt P09733: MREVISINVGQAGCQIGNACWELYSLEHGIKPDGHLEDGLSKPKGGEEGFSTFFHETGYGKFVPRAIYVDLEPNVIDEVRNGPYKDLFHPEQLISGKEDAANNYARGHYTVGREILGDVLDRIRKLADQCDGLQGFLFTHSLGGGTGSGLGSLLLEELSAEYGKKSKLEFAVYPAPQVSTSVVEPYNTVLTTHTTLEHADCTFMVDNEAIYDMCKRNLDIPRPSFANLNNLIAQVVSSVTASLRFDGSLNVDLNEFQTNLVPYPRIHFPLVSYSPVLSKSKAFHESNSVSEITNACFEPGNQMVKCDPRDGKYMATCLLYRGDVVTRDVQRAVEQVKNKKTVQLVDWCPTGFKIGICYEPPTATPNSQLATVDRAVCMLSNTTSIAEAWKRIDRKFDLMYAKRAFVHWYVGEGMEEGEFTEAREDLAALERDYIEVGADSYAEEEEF

The test has as its target T1, GST-TOG1/2 (the two TOG domains of Stu2 fused to a GST tag, Stu2 1-590) (S. cerevisiae) (UniProt P46675).
T1 sequence: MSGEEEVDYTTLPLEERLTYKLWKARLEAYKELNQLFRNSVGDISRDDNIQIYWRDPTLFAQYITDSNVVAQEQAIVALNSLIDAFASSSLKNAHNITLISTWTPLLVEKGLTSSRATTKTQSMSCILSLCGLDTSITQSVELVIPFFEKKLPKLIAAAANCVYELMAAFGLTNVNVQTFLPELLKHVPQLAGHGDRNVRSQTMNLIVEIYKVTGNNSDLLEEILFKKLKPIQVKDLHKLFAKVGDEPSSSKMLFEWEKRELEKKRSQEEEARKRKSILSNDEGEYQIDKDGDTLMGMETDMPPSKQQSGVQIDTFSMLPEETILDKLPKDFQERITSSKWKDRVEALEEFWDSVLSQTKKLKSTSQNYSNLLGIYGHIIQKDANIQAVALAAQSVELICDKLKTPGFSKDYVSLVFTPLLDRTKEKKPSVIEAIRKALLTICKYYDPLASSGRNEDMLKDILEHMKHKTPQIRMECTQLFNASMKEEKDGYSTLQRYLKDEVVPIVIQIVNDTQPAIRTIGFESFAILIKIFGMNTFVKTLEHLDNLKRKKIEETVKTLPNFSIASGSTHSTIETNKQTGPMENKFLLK
The test is described as follows: pull-down; 100 nM tubulin mixed with 9.8 nM to 5 µM GST-TOG1/2 at 4°C for 15 min, then glutathione magnetic agarose beads, 4°C, 1 hr; beads equilibrated in 125 mM Tris-HCl, 150 mM KCl, 1 mM DTT, 1 mM EDTA, pH 7.4; unbound tubulin left in the supernatant read by western blot for α- and β-tubulin; both purified. (In western blotting, separated proteins are transferred to a membrane and probed.)

Consider “purified budding yeast tubulin heterodimer, Tub1-V410A (internal 6X-His) with Tub2 (from UniProt P09733 1-447; P02557 1-457) (complex)”, for which the binding entry is “binds weakly”. Turning to “purified budding yeast tubulin heterodimer, Tub1-V410I (internal 6X-His) with Tub2 (from UniProt P09733 1-447; P02557 1-457) (complex)”, the binding entry is reported as “binds weakly”.
